Experimental data published in paper PMC9732331.

Chains of the proteins cited; added tags and fusions are not shown. Lines headed by an entry give the natural chain unless they say otherwise; changes in a name come on top.
UniProt Q9UM11: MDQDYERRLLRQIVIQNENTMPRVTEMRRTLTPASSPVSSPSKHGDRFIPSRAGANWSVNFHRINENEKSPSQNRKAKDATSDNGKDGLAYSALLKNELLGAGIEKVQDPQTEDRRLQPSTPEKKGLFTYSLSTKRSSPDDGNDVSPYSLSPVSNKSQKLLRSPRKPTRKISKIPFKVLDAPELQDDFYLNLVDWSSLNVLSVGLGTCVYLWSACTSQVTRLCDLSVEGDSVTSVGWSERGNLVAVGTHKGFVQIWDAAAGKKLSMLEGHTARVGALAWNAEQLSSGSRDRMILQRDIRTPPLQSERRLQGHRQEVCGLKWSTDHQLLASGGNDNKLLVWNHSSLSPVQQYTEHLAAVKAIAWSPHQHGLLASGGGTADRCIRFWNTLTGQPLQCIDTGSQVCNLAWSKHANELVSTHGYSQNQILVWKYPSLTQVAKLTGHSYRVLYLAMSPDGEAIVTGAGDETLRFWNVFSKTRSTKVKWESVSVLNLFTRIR
UniProt Q6J9G0: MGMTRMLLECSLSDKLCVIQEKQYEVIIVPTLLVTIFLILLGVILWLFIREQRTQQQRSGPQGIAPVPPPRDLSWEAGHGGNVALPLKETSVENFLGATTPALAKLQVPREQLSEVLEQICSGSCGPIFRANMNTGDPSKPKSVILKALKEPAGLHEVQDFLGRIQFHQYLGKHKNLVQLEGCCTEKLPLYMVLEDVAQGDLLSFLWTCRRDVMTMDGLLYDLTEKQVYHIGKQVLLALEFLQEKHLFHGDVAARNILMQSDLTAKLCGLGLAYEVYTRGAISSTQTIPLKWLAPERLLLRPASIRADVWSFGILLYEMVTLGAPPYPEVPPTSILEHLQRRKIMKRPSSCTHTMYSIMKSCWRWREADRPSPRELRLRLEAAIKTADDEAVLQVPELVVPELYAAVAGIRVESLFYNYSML

What follows are substances tested against FLAG-tagged CDH1 (UniProt Q9UM11) (assay: co-IP; HEK293T cells co-transfected with FLAG-CDH1 and STYK1/NOK or its mutants or truncated forms, 10 μM MG132 for 4 h before harvesting; about 2000 μg lysate with anti-FLAG affinity gel at 4 °C overnight, washed 6 times with 1xPBS, immunoblot).
In the case of “STYK1/NOK D-box deleted mutant ΔD1 (from UniProt Q6J9G0)”, the binding is reported as “binds”. For “STYK1/NOK D-box deleted mutant ΔD2 (from UniProt Q6J9G0)”, the binding was “binds”. In the case of “STYK1/NOK D-box deleted mutant ΔD3 (from UniProt Q6J9G0)”, the binding is reported as “binds”. For “STYK1/NOK D-box deleted mutant ΔD4 (from UniProt Q6J9G0)”, the binding was “binds”. In the case of “STYK1/NOK D-box deleted mutant ΔD5 (from UniProt Q6J9G0)”, the binding is reported as “binds”. “STYK1/NOK truncated form with both termini removed (kinase domain) (from UniProt Q6J9G0) (domain or fragment)” was tested, and the binding was “binds”.

These are yes or no findings as the source states them, for the method shown. In cells and extracts the contact can be indirect. Binding can be weak; no strength is given.
